The other results are listed elsewhere or left out. The data scatter; read single values as rough.
What follows are compounds tested against T1, NSMCE2 C169 (UniProt Q96MF7) (assay: log2 mean competition ratio of IA-DTB cysteine labelling (DMSO/compound) (log2 ratio); higher = stronger cysteine engagement by compound). Details: 50 µM; treatment time: 4 h; cell line lysate: HEK293T.
T1 sequence (whole entry): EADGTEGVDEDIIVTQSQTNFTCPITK
Description: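 IA-DTB competitive cysteine chemoproteomics in HEK293T RIPA lysate. Lysates were treated with compound 29 or 30 at 50 or 200 µM for 4 h, then IA-DTB (500 µM, 1 h), trypsin-digested, NeutrAvidin-enriched and analysed by diaPASEF. Competition ratio = intensity DMSO / intensity compound (n=4 treated, n=64 DMSO); binding: mean log2 CR ≥ 1 and p ≤ 0.05 plus QC filters. Target is the cysteine site.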

Protein sequences, listed by entry. Tags and fused reporters are not part of them. Lines headed by an entry give the natural chain unless they say otherwise; changes in a name come on top.
UniProt Q96MF7: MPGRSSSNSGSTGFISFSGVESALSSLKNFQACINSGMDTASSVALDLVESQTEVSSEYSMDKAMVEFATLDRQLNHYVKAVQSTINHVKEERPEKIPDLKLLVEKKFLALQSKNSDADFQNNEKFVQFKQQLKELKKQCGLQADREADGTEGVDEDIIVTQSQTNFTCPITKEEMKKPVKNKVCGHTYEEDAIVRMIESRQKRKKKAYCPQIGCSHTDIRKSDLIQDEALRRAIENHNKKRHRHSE

Structure (SMILES)	log2 mean competition ratio
O=C(CCl)N[C@@H]1CCCc2ccccc21	0.00936
O=C(CCl)N[C@H]1CCCc2ccccc21	-0.204

Same assay, conditions: 200 µM; treatment time: 4 h; cell line lysate: HEK293T

Structure (SMILES)	log2 mean competition ratio
O=C(CCl)N[C@@H]1CCCc2ccccc21	-0.443
O=C(CCl)N[C@H]1CCCc2ccccc21	-0.632
